Test results published in patent US9206243.
Results are given in words; binding and its absence hold for the method and conditions named. Some results given as binding are weak or reduced against the parent protein; the word gives no strength.

Sequences of proteins named here, by UniProt entry; tags and fusion partners are left off. A change or cut given only in a name is not applied to a line headed by its entry. A line that says so, or that is headed by a name, gives the form on record, which may keep a tag or linker.
IL-2 mutein R38A, F42A, Y45A, E62A (P60568, form named): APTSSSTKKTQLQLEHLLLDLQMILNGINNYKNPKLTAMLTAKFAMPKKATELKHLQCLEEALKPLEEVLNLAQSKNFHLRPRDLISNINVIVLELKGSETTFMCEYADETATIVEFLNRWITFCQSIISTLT
IL-2 mutein R38A, F42I, Y45N, E62L, E68V (P60568, form named): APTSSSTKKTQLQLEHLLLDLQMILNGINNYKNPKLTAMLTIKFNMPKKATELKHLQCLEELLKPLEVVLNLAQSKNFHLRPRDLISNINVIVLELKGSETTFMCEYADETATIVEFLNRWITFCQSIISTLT
IL-2 mutein R38K, F42I, Y45E, E68V (P60568, form named): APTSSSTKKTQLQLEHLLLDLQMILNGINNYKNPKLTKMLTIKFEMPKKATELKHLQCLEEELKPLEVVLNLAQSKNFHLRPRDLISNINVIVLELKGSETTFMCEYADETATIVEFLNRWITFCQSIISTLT
IL-2 mutein R38K, F42I, Y45N, E62L, E68V (P60568, form named): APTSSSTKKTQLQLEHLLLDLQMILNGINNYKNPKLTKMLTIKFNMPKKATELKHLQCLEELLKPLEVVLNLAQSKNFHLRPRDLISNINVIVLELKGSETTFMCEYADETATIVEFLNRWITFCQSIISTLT
IL-2 mutein R38K, F42K, Y45R, E62L, E68V (P60568, form named): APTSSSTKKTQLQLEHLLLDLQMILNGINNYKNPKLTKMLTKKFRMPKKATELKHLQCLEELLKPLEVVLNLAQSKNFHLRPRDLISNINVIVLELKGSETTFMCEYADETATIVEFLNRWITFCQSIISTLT
IL-2 mutein R38K, F42Q, Y45E, E68V (P60568, form named): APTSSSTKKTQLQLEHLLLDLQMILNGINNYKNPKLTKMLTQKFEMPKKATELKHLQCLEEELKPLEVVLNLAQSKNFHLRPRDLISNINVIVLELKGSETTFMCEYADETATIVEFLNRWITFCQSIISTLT

target: T1, IL-2 receptor on the surface of CTLL2 cell line (UniProt P01590); assay: flow cytometry on CTLL2 cells, detection with anti 6His tag MAb
T1 sequence (looked up) 1: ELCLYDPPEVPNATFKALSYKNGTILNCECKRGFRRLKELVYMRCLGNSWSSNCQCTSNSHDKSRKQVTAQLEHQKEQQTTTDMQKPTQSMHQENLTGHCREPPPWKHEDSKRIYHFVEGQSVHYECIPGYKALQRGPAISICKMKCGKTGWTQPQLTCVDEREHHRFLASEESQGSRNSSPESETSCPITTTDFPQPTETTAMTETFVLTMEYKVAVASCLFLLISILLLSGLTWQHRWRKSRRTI
T1 sequence (looked up) 2: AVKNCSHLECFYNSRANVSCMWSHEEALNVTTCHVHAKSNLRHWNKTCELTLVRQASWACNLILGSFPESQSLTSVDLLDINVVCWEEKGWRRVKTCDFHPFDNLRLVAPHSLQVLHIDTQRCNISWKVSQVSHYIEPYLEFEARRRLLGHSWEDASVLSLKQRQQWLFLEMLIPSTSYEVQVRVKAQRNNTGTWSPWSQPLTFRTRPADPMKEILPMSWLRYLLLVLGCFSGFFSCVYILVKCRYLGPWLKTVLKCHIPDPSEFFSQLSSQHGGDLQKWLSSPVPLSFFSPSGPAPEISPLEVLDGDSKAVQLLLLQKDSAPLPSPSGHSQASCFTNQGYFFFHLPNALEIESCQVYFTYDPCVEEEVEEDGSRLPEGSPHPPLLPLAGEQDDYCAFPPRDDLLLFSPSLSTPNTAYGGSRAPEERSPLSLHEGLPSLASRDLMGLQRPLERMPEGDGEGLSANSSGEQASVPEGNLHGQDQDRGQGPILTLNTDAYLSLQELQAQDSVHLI
T1 sequence (looked up) 3: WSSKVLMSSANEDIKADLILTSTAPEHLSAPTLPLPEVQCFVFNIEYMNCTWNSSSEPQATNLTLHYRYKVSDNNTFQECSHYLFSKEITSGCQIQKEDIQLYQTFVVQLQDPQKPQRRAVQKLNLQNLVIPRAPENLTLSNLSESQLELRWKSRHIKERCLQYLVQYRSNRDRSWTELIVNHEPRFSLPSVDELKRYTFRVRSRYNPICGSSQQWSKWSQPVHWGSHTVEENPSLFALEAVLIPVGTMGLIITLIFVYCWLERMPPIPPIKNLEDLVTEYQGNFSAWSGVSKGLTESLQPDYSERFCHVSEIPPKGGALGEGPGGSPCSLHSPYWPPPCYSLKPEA

binding, binds:
IL-2 mutein R38A, F42A, Y45A, E62A (from UniProt P60568 21-153) (ligand)
IL-2 mutein R38A, F42I, Y45N, E62L, E68V (from UniProt P60568 21-153) (ligand)
IL-2 mutein R38K, F42I, Y45E, E68V (from UniProt P60568 21-153) (ligand)
IL-2 mutein R38K, F42I, Y45N, E62L, E68V (from UniProt P60568 21-153) (ligand)
IL-2 mutein R38K, F42K, Y45R, E62L, E68V (from UniProt P60568 21-153) (ligand)
IL-2 mutein R38K, F42Q, Y45E, E68V (from UniProt P60568 21-153) (ligand)
